We go through nine targets from the supplement of paper PMC12819154, “High-throughput peptide-centric local stability assay extends protein–ligand identification to membrane proteins, tissues and bacteria” (Nature Structural & Molecular Biology, 2025).

Sequences of proteins named here, by UniProt entry; tags and fusion partners are left off. A change or cut given only in a name is not applied to a line headed by its entry.
UniProt Q920I9, whole entry: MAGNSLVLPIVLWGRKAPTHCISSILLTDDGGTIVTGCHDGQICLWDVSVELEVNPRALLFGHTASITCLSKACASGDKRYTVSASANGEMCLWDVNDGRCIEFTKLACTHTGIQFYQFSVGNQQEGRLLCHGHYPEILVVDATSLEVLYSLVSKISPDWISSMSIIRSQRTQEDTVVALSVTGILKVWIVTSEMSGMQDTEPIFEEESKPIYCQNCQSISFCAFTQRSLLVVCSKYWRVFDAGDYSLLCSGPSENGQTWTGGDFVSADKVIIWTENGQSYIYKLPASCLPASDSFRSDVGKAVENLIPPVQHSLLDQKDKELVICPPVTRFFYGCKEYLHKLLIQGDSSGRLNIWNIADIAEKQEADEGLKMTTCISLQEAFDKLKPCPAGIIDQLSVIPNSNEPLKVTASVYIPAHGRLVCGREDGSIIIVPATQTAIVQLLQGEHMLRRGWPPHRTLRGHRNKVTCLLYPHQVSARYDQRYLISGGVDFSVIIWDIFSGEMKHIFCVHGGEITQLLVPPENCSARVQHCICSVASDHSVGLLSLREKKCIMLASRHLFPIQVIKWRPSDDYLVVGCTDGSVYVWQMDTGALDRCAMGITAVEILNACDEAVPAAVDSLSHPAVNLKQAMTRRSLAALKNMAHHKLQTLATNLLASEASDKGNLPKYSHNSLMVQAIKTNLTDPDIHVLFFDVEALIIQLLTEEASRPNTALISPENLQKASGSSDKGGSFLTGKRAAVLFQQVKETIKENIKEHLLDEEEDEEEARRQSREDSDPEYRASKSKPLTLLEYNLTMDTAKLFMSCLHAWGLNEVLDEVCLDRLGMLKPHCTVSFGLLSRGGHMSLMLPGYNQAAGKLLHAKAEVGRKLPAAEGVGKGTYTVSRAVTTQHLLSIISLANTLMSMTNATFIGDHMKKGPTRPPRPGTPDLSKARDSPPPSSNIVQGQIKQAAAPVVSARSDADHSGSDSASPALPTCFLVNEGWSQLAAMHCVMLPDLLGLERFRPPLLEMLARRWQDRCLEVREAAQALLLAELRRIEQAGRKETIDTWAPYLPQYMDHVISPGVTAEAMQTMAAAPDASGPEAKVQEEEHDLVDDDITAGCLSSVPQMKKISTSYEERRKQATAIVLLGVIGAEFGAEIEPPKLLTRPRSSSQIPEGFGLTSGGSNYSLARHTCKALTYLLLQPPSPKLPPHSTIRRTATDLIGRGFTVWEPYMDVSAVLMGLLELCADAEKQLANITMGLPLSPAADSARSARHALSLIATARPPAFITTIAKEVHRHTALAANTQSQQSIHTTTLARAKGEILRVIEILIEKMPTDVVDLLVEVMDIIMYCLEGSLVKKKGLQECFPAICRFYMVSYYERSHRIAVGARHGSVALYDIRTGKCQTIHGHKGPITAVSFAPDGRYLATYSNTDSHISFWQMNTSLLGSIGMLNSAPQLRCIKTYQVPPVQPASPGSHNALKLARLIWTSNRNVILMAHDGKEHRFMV
UniProt Q921R8: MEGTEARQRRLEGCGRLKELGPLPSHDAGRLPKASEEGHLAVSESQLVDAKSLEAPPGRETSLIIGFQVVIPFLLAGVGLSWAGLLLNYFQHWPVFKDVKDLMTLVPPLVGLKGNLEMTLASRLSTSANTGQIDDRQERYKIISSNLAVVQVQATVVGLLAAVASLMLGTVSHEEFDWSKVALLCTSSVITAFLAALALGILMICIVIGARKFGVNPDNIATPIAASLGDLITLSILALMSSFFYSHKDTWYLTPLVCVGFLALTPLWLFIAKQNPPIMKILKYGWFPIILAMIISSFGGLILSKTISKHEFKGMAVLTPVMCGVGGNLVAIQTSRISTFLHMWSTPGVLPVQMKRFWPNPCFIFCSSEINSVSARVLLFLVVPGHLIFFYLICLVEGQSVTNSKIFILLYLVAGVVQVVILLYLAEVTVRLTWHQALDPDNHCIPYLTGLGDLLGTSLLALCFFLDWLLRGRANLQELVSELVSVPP
UniProt Q921E2: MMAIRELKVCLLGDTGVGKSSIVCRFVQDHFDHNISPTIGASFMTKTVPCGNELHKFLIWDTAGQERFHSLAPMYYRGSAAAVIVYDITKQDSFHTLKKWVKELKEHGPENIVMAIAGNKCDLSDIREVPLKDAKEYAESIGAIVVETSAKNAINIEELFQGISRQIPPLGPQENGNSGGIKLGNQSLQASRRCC
UniProt Q924T2, whole entry: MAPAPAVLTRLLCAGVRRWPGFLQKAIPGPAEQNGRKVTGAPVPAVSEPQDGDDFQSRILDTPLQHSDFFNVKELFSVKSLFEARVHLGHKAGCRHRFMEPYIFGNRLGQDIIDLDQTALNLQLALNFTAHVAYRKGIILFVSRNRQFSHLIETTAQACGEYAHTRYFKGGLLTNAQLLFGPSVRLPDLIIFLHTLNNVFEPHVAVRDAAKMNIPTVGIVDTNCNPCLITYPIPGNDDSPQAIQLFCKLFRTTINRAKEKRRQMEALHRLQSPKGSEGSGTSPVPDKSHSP
UniProt Q925N2: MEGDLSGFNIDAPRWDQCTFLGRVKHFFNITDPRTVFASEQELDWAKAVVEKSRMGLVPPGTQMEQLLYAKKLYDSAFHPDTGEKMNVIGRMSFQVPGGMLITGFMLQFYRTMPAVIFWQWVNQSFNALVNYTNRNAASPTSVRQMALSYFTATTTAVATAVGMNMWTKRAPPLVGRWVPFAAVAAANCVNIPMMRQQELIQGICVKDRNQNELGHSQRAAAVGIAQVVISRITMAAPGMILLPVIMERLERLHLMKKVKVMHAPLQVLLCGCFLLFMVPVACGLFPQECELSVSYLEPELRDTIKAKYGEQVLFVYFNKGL
UniProt Q99KN2: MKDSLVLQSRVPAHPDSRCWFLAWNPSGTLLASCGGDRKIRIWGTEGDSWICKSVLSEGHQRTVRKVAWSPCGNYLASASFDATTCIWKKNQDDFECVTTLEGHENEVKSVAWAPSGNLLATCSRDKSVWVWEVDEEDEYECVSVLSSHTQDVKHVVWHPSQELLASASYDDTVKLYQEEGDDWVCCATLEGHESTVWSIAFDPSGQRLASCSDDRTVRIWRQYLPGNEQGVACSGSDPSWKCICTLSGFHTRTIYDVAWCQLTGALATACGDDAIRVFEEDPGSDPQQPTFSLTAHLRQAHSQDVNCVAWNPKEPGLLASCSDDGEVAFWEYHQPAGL
UniProt Q99JR5: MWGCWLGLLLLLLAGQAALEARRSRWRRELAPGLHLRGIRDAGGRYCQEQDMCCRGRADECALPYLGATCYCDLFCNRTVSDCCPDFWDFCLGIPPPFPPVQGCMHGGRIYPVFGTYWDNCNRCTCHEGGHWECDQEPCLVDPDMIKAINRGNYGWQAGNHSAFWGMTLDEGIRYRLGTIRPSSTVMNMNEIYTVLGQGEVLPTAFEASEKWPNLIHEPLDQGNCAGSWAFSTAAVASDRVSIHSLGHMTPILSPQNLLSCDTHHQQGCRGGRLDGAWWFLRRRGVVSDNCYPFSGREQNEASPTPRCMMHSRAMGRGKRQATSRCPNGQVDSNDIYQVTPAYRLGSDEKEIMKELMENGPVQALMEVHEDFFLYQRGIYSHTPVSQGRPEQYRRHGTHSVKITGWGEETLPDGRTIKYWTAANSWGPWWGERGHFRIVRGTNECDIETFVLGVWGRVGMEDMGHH
UniProt Q99L02, whole entry: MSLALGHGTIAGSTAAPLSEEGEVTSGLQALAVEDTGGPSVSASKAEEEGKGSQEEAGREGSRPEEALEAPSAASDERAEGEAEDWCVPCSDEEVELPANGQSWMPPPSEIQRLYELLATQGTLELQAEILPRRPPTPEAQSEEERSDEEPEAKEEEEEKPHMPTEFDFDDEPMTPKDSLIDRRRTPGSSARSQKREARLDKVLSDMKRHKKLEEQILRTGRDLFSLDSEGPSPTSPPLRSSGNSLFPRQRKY
UniProt Q922R8: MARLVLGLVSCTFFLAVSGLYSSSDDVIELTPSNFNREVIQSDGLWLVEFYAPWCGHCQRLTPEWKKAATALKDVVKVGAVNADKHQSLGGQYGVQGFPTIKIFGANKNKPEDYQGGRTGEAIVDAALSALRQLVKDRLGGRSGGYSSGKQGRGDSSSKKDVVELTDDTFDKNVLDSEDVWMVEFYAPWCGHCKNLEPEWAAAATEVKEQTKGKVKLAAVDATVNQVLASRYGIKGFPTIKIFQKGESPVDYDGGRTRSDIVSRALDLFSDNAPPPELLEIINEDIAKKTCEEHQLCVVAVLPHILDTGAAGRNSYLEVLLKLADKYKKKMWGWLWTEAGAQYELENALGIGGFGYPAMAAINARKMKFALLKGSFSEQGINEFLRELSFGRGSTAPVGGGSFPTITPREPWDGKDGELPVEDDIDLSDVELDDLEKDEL

The list shows a part of the results. Most entries show no effect beyond the scatter of the controls.

Compound in the experiment: CN[C@@H]1C[C@H]2O[C@@](C)([C@@H]1OC)n1c3ccccc3c3c4c(c5c6ccccc6n2c5c31)C(=O)NC4 [staurosporine]
As to the kind of experiment: log2 fold change of tryptic peptide abundance, ligand vs vehicle (limited proteolysis) (log2 ratio); higher = more trypsin-susceptible (destabilized). The following applies: ligand concentration: 20 uM; sample: mouse liver crude lysate; replicate design: treated separately.
On to “UniProt Q920I9 (peptide sequence: GPTRPPRPGTPDLSK, peptide start residue: 917)”, for which the log2 fold change came out at 0.362. The figure for “UniProt Q921R8 (peptide sequence: ELGPLPSHDAGRLPK, peptide start residue: 19)” is 0.1. As to “UniProt Q921E2 (peptide sequence: EVPLKDAK, peptide start residue: 127)”, the log2 fold change was -0.426. Regarding “UniProt Q924T2 (peptide sequence: GSEGSGTSPVPDKSHSP, peptide start residue: 275)”, the log2 fold change was 0.102. With “UniProt Q925N2 (peptide sequence: DRNQNELGHSQR, peptide start residue: 208)” the figure was -0.808; with “UniProt Q99KN2 (peptide sequence: CICTLSGFHTR, peptide start residue: 243)”, 0.106; with “UniProt Q99JR5 (peptide sequence: EQNEASPTPR, peptide start residue: 298)”, -0.15. In the case of “UniProt Q99L02 (peptide sequence: DSLIDRR, peptide start residue: 178)”, the log2 fold change is -0.316. The figure for “UniProt Q922R8 (peptide sequence: KAATALKDVVK, peptide start residue: 67)” is -1.21.
